Results as given in PubChem BioAssay AID2685 (National Center for Advancing Translational Sciences (NCATS), 2010).
The list shows a part of the results. Shown are side measurements of this screen, not its main read-out; they come without a call. The list favours compounds with an active or inconclusive main result. Potencies come from curve fits of mixed quality, noted in brackets.

Assay: qHTS Assay for Lipid Storage Modulators in Drosophila S3 Cells;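 on cell number change: cells counted by Cell Tracker Red CMTPX staining in the red channel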
Conditions: BODIPY lipid droplet fluorescence, 18-24 h; for cell number change: measured here: cell count max response, cells fed with added oleic acid
Outline: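 Drosophila S3 cells got compounds at several concentrations plus oleic acid (400 uM solution). Laser-scanning cytometry with 488 nm excitation read lipid droplets at 500-530 nm and cells at 575-640 nm. Percent activity was relative to 20 uM Triacsin C.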

[1] = measured here: cell number channel AC50, cells fed with added oleic acid
[2] = measured here: lipid fluorescence (Fed channel) AC50, cells fed with added oleic acid

Row | SMILES | AC50 [1] | AC50 [2] | cell number change
1 | COc1ccc(-n2cnnc2SCC(=O)Nc2nc(C)c(Cl)cc2Cl)cc1 | 1.46 µM [rising, partial curve] | 1.84 µM [rising, partial curve] | –
2 | CCN(C(=O)c1cn(CC)c(=O)c2cc(OC)c(OC)cc12)c1ccccc1C | 23.1 µM [rising, single point] | – | 87.5%
3 | COc1ccccc1NC(=O)C1=C(C)NC(SCC(=O)c2ccc(C)cc2)=C(C#N)C1c1ccco1 (stereo not given) | 0.411 µM [rising, single point] | 6.51 µM [rising, single point] | –
4 | CCc1nnc(NC(=O)CS(=O)(=O)c2ccccc2)s1 | – | 0.116 µM [rising, single point] | 0.833%
5 | CCc1n[nH]c(=S)n1/N=C/c1ccccc1OCc1ccc(Cl)cc1 | 29.1 µM [falling, single point] | – | -56.7%
6 | NNC(=O)c1nc[nH]c1C(=O)Nc1ccccn1 | – | 8.2 µM [falling, partial curve, poor fit] | 2.64%
7 | Cc1ccc(NC(=O)CNc2cccc(S(=O)(=O)N3CCCC3)c2)cc1F | 18.4 µM [rising, partial curve] | – | 102%
8 | O=S(=O)(NCc1ccccc1)c1ccc(Br)s1 | – | 29.1 µM [rising, single point] | –
9 | CCOC(=O)C(N)CSC1CC(=O)N(CCc2ccccc2)C1=O (stereo not given) | – | 16.4 µM [falling, partial curve] | -5.25%
10 | O=C(Nc1cccc(NC(=O)c2ccco2)c1)c1ccccc1 | – | 5.17 µM [falling, single point] | 17.9%
11 | COC(=O)c1sccc1NC(=O)Nc1ccc(OC)cc1OC | – | – | -21.2%
12 | CNc1nc(NCc2ccccc2)c2ccccc2n1 | – | – | 3.28%
13 | O=C(c1ccc(F)cc1F)N1CCCC(c2nc(-c3cccs3)no2)C1 (stereo not given) | – | – | 4.78%
14 | COc1ccccc1N1CC(C(=O)Nc2cc(C(F)(F)F)ccc2N2CCCC2)CC1=O (stereo not given) | 29.1 µM [rising, single point] | – | 58.6%
15 | O=C(COC(=O)COc1ccc2ccccc2c1)NCC(F)(F)F | – | – | 49.6%
16 | CC(C(=O)N1CCN(Cc2ccccc2)CC1)n1ncn2cccc2c1=O (stereo not given) | – | 29.1 µM [rising, single point] | 19.9%
17 | COc1ccc(OC)c(NC(=O)c2cc3sccc3n2C)c1 | – | – | -0.32%
18 | COc1cccc(C(=O)Nc2ccc(NC(=O)c3cc4ccccc4o3)c(OC)c2)c1 | – | 4.11 µM [falling, full curve] | -16.5%
19 | Cc1cc(-c2ccc(Br)s2)nc(-n2cccc2)n1 | – | – | -13.5%
20 | CCOc1ccc(C(=O)CC(Sc2ccc(C)cc2)C(=O)O)cc1 (stereo not given) | – | 11.6 µM [falling, partial curve, poor fit] | -5.23%
21 | Cc1ccc(C(c2c(O)nc3n(c2=O)CCS3)c2c(O)nc3n(c2=O)CCS3)cc1 | – | 0.103 µM [falling, full curve, poor fit] | -83.3%
22 | CCn1c2ccc(/C(C)=N\O)cc2c2cc(/C(C)=N\O)ccc21 | – | – | -14.9%

Row | SMILES | AC50 [1] | AC50 [2] | cell number change
23 | CC1(C2CC2)NC(=O)N(CC(=O)Nc2ccc(Cl)c([N+](=O)[O-])c2)C1=O (stereo not given) | – | – | -20.8%
24 | CC(=O)c1ccc(OC(C)c2nc3ccccc3s2)cc1 (stereo not given) | – | 0.58 µM [rising, single point] | -8.33%
25 | Cn1c(=O)c2c(nc(NCc3ccco3)n2CC(O)COc2ccccc2)n(C)c1=O (stereo not given) | – | – | -16.6%
26 | CCCC1(c2ccccc2)NC(=O)N(CC(=O)NCc2ccc(OC)cc2)C1=O (stereo not given) | – | 29.1 µM [rising, single point] | –
27 | COc1cc2c(cc1OC)C(c1ccc(Br)cc1)CC(=O)N2 (stereo not given) | – | 20.6 µM [falling, single point] | -20.6%
28 | CCCOc1ccc(N2C(=O)CC(N(CCc3ccc(OC)c(OC)c3)C(=O)c3ccccc3)C2=O)cc1 (stereo not given) | – | 2.59 µM [falling, partial curve] | -9.05%
29 | Cc1ccccc1OCC(=O)OCC(=O)Nc1ccc2c(c1)OCCO2 | – | 23.1 µM [rising, single point] | 16%
30 | COc1ccc(NC(=O)CN2CCC3(O)CCCCC3C2c2ccccc2OC)cc1 (stereo not given) | 29.1 µM [falling, single point] | – | -51.2%
31 | C=C(C)c1cccc(C(C)(C)NC(=O)Nc2ccc(Cl)cn2)c1 | 14.6 µM [falling, single point] | – | -39%
32 | O=C(CCC1CCCC1)N=C1SC2CS(=O)(=O)CC2N1c1ccccc1F (stereo not given) | 29.1 µM [rising, single point] | – | 31.8%
33 | CCC(C)(C)n1nnnc1CN1CCN(c2nc3cc(OC)ccc3cc2C#N)CC1 | – | 0.92 µM [rising, full curve] | -1.43%
34 | Cc1cc(NC(=O)CSc2nnc(COc3cccc(C)c3C)n2Cc2ccco2)no1 | – | 0.731 µM [falling, single point] | –
35 | NNC(=O)c1ccc(COc2ccc3ccccc3c2)cc1 | – | 0.116 µM [rising, full curve, poor fit] | 2.95%
36 | O=C(CCC1CCCC1)NCCCN1CCOCC1 | 0.184 µM [falling, full curve, poor fit] | 20.6 µM [falling, partial curve] | -23.5%
37 | CCCCC(=O)Nc1nnc(-c2ccco2)o1 | – | – | 11.1%
38 | CC(=O)c1cccc(S(=O)(=O)N2CCCC(c3nc(-c4ccc(C)o4)no3)C2)c1 (stereo not given) | – | – | 8.22%
39 | NNC(=O)COc1ccc(-c2nccc(-c3ccc(F)cc3)n2)cc1 | – | 0.0651 µM [rising, full curve, poor fit] | -4.82%
40 | CC1=NN(c2ccc(C)cc2)C(=O)/C1=C/c1ccc(-c2cc([N+](=O)[O-])ccc2O)o1 | 1.64 µM [falling, partial curve, poor fit] | – | -45.6%
41 | O=C(O)CC(c1ccc(OC2CCCC2)cc1)N1C(=O)c2ccccc2C1=O (stereo not given) | – | 0.58 µM [falling, single point] | 41.4%
42 | O=C(c1cc(-c2ccco2)nc2ccccc12)N1CCN(Cc2ccccc2)CC1 | – | – | -1.16%
43 | CC(=O)N(c1ccc(Br)cc1)C1C=CS(=O)(=O)C1 (stereo not given) | 13 µM [falling, partial curve] | 18.4 µM [falling, partial curve] | -53.6%
44 | Cc1cc2c3c(c1C)C1(C(=O)N3C(C)(C)CC2C)C(C#N)=C(N)Oc2cc(O)ccc21 (stereo not given) | 3.66 µM [rising, single point] | 4.61 µM [rising, partial curve] | -53%

12 entries from above, reformatted.
Row,SMILES,AC50 [1],AC50 [2],cell number change
12,CNc1nc(NCc2ccccc2)c2ccccc2n1,–,–,3.28%
18,COc1cccc(C(=O)Nc2ccc(NC(=O)c3cc4ccccc4o3)c(OC)c2)c1,–,"4.11 µM [falling, full curve]",-16.5%
19,Cc1cc(-c2ccc(Br)s2)nc(-n2cccc2)n1,–,–,-13.5%
20,CCOc1ccc(C(=O)CC(Sc2ccc(C)cc2)C(=O)O)cc1 (stereo not given),–,"11.6 µM [falling, partial curve, poor fit]",-5.23%
21,Cc1ccc(C(c2c(O)nc3n(c2=O)CCS3)c2c(O)nc3n(c2=O)CCS3)cc1,–,"0.103 µM [falling, full curve, poor fit]",-83.3%
24,CC(=O)c1ccc(OC(C)c2nc3ccccc3s2)cc1 (stereo not given),–,"0.58 µM [rising, single point]",-8.33%
25,Cn1c(=O)c2c(nc(NCc3ccco3)n2CC(O)COc2ccccc2)n(C)c1=O (stereo not given),–,–,-16.6%
28,CCCOc1ccc(N2C(=O)CC(N(CCc3ccc(OC)c(OC)c3)C(=O)c3ccccc3)C2=O)cc1 (stereo not given),–,"2.59 µM [falling, partial curve]",-9.05%
37,CCCCC(=O)Nc1nnc(-c2ccco2)o1,–,–,11.1%
38,CC(=O)c1cccc(S(=O)(=O)N2CCCC(c3nc(-c4ccc(C)o4)no3)C2)c1 (stereo not given),–,–,8.22%
39,NNC(=O)COc1ccc(-c2nccc(-c3ccc(F)cc3)n2)cc1,–,"0.0651 µM [rising, full curve, poor fit]",-4.82%
41,O=C(O)CC(c1ccc(OC2CCCC2)cc1)N1C(=O)c2ccccc2C1=O (stereo not given),–,"0.58 µM [falling, single point]",41.4%

Following part.

Row | SMILES | AC50 [1] | AC50 [2] | cell number change
45 | CCN(c1ccc(OC)cc1)S(=O)(=O)c1nnc(NC(=O)CC(C)C)s1 | 25.9 µM [rising, partial curve, poor fit] | – | 41.1%
46 | CCOCCNC(=O)c1ccccc1C(=O)NCCOCC | – | 0.731 µM [falling, full curve] | 6.81%
47 | COc1ccc(CNC(=O)CN(C(=O)c2snc(C(N)=O)c2N)c2ccc(F)cc2)cc1 | – | – | 0.427%
48 | N#Cc1ccccc1CSc1ccc(-c2nc3ccccc3[nH]2)cn1 | – | – | -85%
49 | COCc1c(C(=O)NC2CCCCC2)sc2cccc(F)c12 | – | 29.1 µM [falling, single point] | -0.137%
50 | COc1ccccc1N1CCN(CC(=O)Nc2cccc(F)c2)CC1 | – | 10.3 µM [rising, partial curve] | 19.5%
51 | O=C(CCN1CCN(c2ccccc2)CC1)Nc1ccc(OCc2ccccc2)cc1 | – | – | -4.52%
52 | O=C(O)CN1CCN(Cc2ccc(F)cc2Cl)C1=O | – | 1.46 µM [falling, partial curve] | 15%
53 | CCn1cc(CN2CCC(n3nccc3NC(=O)CCCc3ccccc3)CC2)c(C)n1 | – | 29.1 µM [rising, single point] | 3.05%
54 | O=C(c1ccc2c(c1)OCO2)C1CCCN(Cc2cn[nH]c2-c2ccccc2)C1 (stereo not given) | – | 0.00517 µM [falling, full curve, poor fit] | 5.27%
55 | CC(=O)c1ccc(NC(=O)C2CCN(S(=O)(=O)c3cccnc3)CC2)cc1 | 0.0116 µM [rising, full curve, poor fit] | – | 17.9%
56 | Cc1cc(S(=O)(=O)N2CCC3(CC2)OCCO3)c(C)cc1Cl | 7.31 µM [rising, partial curve] | 6.51 µM [rising, single point] | 30.1%
57 | COC(=O)c1c(NC(=O)/C=C/C(=O)O)sc(C)c1-c1ccc(C)cc1 | 9.2 µM [falling, single point] | – | -46.7%
58 | CCOCC(=O)Nc1cc(Cl)ccc1C | – | 9.2 µM [rising, partial curve, poor fit] | 4.06%
59 | Cc1cc(C(=O)COC(=O)c2ccc(O)cc2O)c(C)n1-c1ccc(OC(F)F)cc1 | 5.8 µM [falling, partial curve] | 0.291 µM [falling, partial curve, poor fit] | -41.1%
60 | CCC(C)(C(=O)NC1CCCCC1)N(C(=O)CC1NC(=O)NC1=O)c1c(C)n(C)n(-c2ccccc2)c1=O (stereo not given) | – | 6.51 µM [rising, partial curve, poor fit] | 108%
61 | CCOc1ccc(C2C(C(=O)c3ccco3)=C(O)C(=O)N2CCCn2ccnc2)cc1OC (stereo not given) | 16.4 µM [rising, single point] | – | 56.4%
62 | CC(=O)Nc1ccc(S(=O)(=O)NC2(C(F)(F)F)NC(=O)N(c3ccc(Cl)cc3)C2=O)cc1 (stereo not given) | – | – | -0.731%
63 | COc1ccccc1NC(=S)NC(=O)C1CC1 | – | 0.731 µM [rising, full curve, poor fit] | 0.645%
64 | O=C(COc1ccccc1Cl)Nc1ccc(C(=O)O)cc1NC(=O)COc1ccccc1Cl | – | – | 5.07%
65 | CC(C)(C)NC(=O)C(c1ccc(OCC(N)=O)cc1)N(C(=O)c1cccnc1)C1CC1 (stereo not given) | – | 2.91 µM [rising, partial curve] | -2.3%
